Experimental data from US20250115926A1, “DEREGULATED DHS AND TYRA ENZYMES OF GRASSES ENABLE EFFICIENT PRODUCTION OF BOTH TYROSINE AND PHENYLALANINE” (Wisconsin Alumni Research Foundation, priority 2023, published 2025).
Some of these results come from one statement about several compounds together. Some compounds share one range, which may span the group rather than tell each member.

B1: BdTyrA1: TyrA1 arogenate dehydrogenase of Brachypodium distachyon, SEQ ID NO: 33 (protein)
chain: MLSSSTSHLRLHQPSRAARRLPPAPAPATYQFQSPASRRSLPAPAVGARIRPNRGGTIRAIDAAQPFDYESRAAGLLEERQRLKIAIVGFGNFGQFLARTFARQGHTLLAHSRSDHSSLAASLGAAYFQDPHDLCECHPDVVLLATSILSAEAVLRSLPVHRLRRNTLFVDVLSVKEFPKNLLLTTLPEGFDIICTHPMFGPESARDGWDGLPFVFDKVRVGDCPARRARADTFLNIFEREGCRMVEMSCAEHDAHAAETQFLTHTVGRMLATLELQSTPINTKGYETLLRLVDNTCSDSFDLYNGLFMYNKNSTDLLNRLESAMDSVKKRLFDGLHDVLRKQLFEGKASPPATSSNTKSDVHRGQLLLEGKASPAPLNANNTTVRN
modifications: Brachypodium distachyon
B2: SbTyrA1: TyrA1 arogenate dehydrogenase of Sorghum bicolor, SEQ ID NO: 39 (protein)
chain: MLSSSTSTLRLHQPTRPHRHHPPAPAAGGATHLASPRRWRGHAPGASSPPALRARAQRIRALDAAQPFDFESRAAGLLEERQRLKIAIVGFGNFGQFLARTFARQGHTLLAHSRTDHSALASTLGASFFTDPHDLCECHPDVVLLATSILSAEAVLRSLPVHRLRRNTLFVDVLSVKEFPRNLLLSSLPPDFDVICTHPMFGPESARDGWDGLPFVFDKVRVGDCPARRARAEAFLNIFEREGCRMVEMSCAEHDAHAAETQFLTHTVGRMLAMLELRSTPINTKGYETLLRLVDNTCSDSFDLYNGLFMYNKNSTELLNRVEWAMDSVKKKLFDGLHDVLRKQLFEGSPHAPNVSSSNVRK
modifications: Sorghum bicolor
B3: SbTyrA2: TyrA2 arogenate dehydrogenase of Sorghum bicolor, SEQ ID NO: 41 (protein)
chain: MASSSCVRLHHLPSTSRRATAPTNLQFRAASCRWRRLSIPVPGVSPPPLRLRATGASQPLGTDSNEEVEKVEEQPQPPPRLKIAVVGFGTFGQFLARTLVAQGHTVLAHSRSDHSAAAASMGALFFSDPHDLCECHPDVVLLATSILSAESVVRSLPLHRLRRDTLFADVLSVKEFPKRLLLGLLPEEMDILCTHPMFGPESARAGWAGLPFMFDKVRVRDTVPARRARAEAFLDVFAQEGCRMVEMSCAEHDAHAAETQFLTHTVGRMLAALELRATPIDTRGYETLLRLVENTCSDSFDLYNGLFMYNNNSTELLNRLDWAMDAVKRRLFDGLHDVLRRQLFHVGEVEGEAERMEELAVVPGGGPDTDDDGCATATATSIKSGEENN
modifications: Sorghum bicolor

Test system: Nicotiana benthamiana leaves
Test: Transient expression of TyrA genes in Nicotiana benthamiana leaves (CaMV 35S promoter), tyrosine by HPLC
Format: in vivo
Conditions: infiltrated leaves, 72 hours
Procedure: Agrobacterium tumefaciens strain GV3101 transformed with the plant expression constructs were grown at 28° C. for 24 to 36 hours in 10 mL of LB liquid media containing the corresponding antibiotics. The saturated cultures were spun down at 3,000 g for 5 minutes at room temperature and washed twice with 3 mL of induction media (IM; 10 mM MES [2-(N-morpholino) ethanesulfonic acid] buffer pH 5.6, 0.5% glucose, 2 mM NaH2PO4, 20 mM NH4Cl, 1 mM MgSO4, 2 mM KCl, 0.1 mM CaCl2), 0.01 mM FeSO4, and 0.2 mM acetosyringone). After washing, bacteria cultures were incubated in IM for 2 to 3 hours at room temperature in the dark, pelleted at 3000 g for 5 minutes, and resuspended into 3 mL of 10 mM MES buffer pH 5.6 with 0.2 mM acetosyringone. OD600nm was adjusted to a final density of 0.25 units for pAGM4673::TyrA (FIG. 3F) and pICH47822::DHS (FIG. 5A) infiltration, or 0.5 units for pAGM4673::TyrA-DHS co-expression constructs (FIG. 5B) using 10 mM MES buffer pH 5.6 with 0.2 mM acetosyringone. For infiltration of pICH47822::DHS constructs, the Agrobacterium suspensions were adjusted to OD600nm=0.5 and mixed with an equal volume of a suspension of an Agrobacterium clone transformed with pICH4780::p19 under control of the Arabidopsis ubiquitin ligase promoter adjusted to OD600nm=0.5, resulting in a final mixture of 0.25 OD600nm units for each construct. […] Nicotiana benthamiana plants of around 4-weeks-old were infiltrated close to the end of the light period into four different spots per plant, distributed into two leaves at two infiltrations per leaf, with each individual spot corresponding with a different construct/treatment. […]
The infiltrated leaf areas, excluding the midrib and major veins, were harvested at 72 hours after infiltration and frozen immediately in liquid nitrogen. […] A tyrosine peak was detected at the retention time of ˜3.5 minutes using fluorescence detection mode (excitation wavelength 274 nm, emission wavelength 303 nm) and quantified with an authentic tyrosine standard (Alfa Acsar, catalog number AAA1114118). […]

Q: Which “tyrosine content compared to the GUS control” value does the source give for B1 here?
A: 2.5 to 3 times

Q: B2 was tested. Which “tyrosine content compared to the GUS control” value did it give?
A: 2.5 to 3 times

Q: B3 was tested. Which “tyrosine content compared to the GUS control” value did it give?
A: 2.5 to 3 times
